The assay deals with Plasmodium falciparum triosephosphate isomerase (Plasmodium falciparum) (UniProt Q07412). The assay is described as follows: condition: only with lithium dodecyl sulphate (concentrations in Figure 4B); native gel or EMSA; BN-PAGE of thirty micrograms of purified TIM loaded with increasing concentrations of lithium dodecyl sulphate (LDS); aggregates to single monomers; both purified. (In EMSA bound probe runs differently from free probe, usually more slowly.)

Sequences of proteins named here, by UniProt entry; tags and fusion partners are left off.
UniProt Q07412: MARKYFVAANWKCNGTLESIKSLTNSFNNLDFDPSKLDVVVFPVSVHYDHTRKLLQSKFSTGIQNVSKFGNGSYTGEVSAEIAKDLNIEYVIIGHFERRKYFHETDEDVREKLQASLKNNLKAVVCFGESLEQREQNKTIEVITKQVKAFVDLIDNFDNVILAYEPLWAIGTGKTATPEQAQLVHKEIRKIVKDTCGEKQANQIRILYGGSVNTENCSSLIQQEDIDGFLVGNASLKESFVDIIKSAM

These are yes or no findings as the source states them, for the method shown.

Regarding “Plasmodium falciparum triosephosphate isomerase (from UniProt Q07412 1-248) (enzyme)”, the binding entry is reported as “no binding”.

These data come from publication PMC6987189, “Native aggregation is a common feature among triosephosphate isomerases of different species” (Scientific Reports, 2020).
